PubChem BioAssay AID1053208 – Peter MacCallum Cancer Centre | 2014

- Screen: 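Genes whose silencing cuts survival of bone tumour cells only with doxorubicin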 (primary screen)
- System: mouse osteosarcoma cells, early-passage culture from an engineered mouse model of fibroblastic bone tumour
- Knock-down reagent: siRNA pool against mouse genes, 40 nM
- Time to read-out: about 120 h (48 h before drug, then 72 h with drug)
- Conditions: doxorubicin 100 nM for 72 h, roughly 30-40% inhibitory dose
- Measured: 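Luminescent ATP signal taken as viability with or without 100 nM doxorubicin for 72 h; mean of two wells set against non-targeting siRNA and turned into robust z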
- Direction: viability z-score with doxorubicin: higher = more viable cells under doxorubicin; viability z-score without drug: higher = more viable cells with knock-down alone
- Call rule: 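a pool counts as active when its viability z-score with doxorubicin is -2 or below and its z-score without drug lies between -2 and 2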
Shown is one part, drawn at random, of about 17,000 reagents. 788 of them (4.7%) were called active. 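Calls rest on z-score classes alone; an extra cut-off of viability at most 70% of control was not applied to them.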 Further read-outs or replicates are left out here. Reagent sequences are not shown.

Silencing of Gm4827 (GeneID 224180) resulted in: combined z-score class no change with or without drug; viability z-score with doxorubicin -0.67; viability z-score without drug 0.17; inactive.
With knock-down of Spidr (GeneID 224008) the results were combined z-score class no change with or without drug; viability z-score with doxorubicin -0.11; viability z-score without drug 0.34; inactive.
For Or9k7 (GeneID 258297) the deposit lists combined z-score class no change with or without drug; viability z-score with doxorubicin -0.45; viability z-score without drug -0.17; inactive.
Depletion of Sdr16c5 (GeneID 242285) resulted in: combined z-score class low cell count with and without drug; viability z-score with doxorubicin -6.52; viability z-score without drug -5.73; inactive.
After knock-down of Rita1 (GeneID 100764), the record shows combined z-score class no change with or without drug; viability z-score with doxorubicin -1.8; viability z-score without drug -0.84; inactive.
With knock-down of Dyrk1b (GeneID 13549), the record shows combined z-score class no change with or without drug; viability z-score with doxorubicin -0.45; viability z-score without drug -1.85; inactive.

2 entries from above, showing only “viability z-score with doxorubicin”:
Or9k7 (GeneID 258297)	-0.45
Sdr16c5 (GeneID 242285)	-6.52

Continued.
After knock-down of Ccnd3 (GeneID 12445) the results were combined z-score class no change with or without drug; viability z-score with doxorubicin 1.12; viability z-score without drug 0.17; inactive.
With knock-down of Nme7 (GeneID 171567) the results were combined z-score class no change with or without drug; viability z-score with doxorubicin 0.11; viability z-score without drug 1.18; inactive.
Depletion of Vps26b (GeneID 69091) resulted in: combined z-score class high cell count without drug only; viability z-score with doxorubicin 0.67; viability z-score without drug 2.87; inactive.
Tnfrsf21 (GeneID 94185) scored combined z-score class no change with or without drug; viability z-score with doxorubicin -0.79; viability z-score without drug -1.01; inactive.
Pipox (GeneID 19193) scored combined z-score class low cell count with doxorubicin only; viability z-score with doxorubicin -2.02; viability z-score without drug -1.85; active.
Hoxa2 (GeneID 15399) scored combined z-score class high cell count with doxorubicin only; viability z-score with doxorubicin 3.37; viability z-score without drug -0.67; inactive.
